Results are given in words; binding and its absence hold for the method and conditions named. For some assays here: Binding can be weak; no strength is given.
Experiments:
[1] = target: T1, PaxA_(981-1084), T1-CDD di-domain construct (apo), X. cabanillasii JM26 (Xenorhabdus cabanillasii JM26) (UniProt W1J0W9); assay: ITC; PaxA construct titrated with the PaxB NDD peptide or its variant; n=3 for the variants; both purified
T1 sequence: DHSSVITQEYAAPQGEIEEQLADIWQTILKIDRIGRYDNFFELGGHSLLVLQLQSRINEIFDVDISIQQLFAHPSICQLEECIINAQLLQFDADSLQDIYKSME

[2] = target: T2, PaxA T1-CDD di-domain with the Ppant moiety (holo), X. cabanillasii JM26 (Xenorhabdus cabanillasii JM26) (UniProt W1J0W9); assay: as above
T2 sequence (chain, phosphopantetheinyl (Ppant) arm attached to residue S1027): T1 sequence

[3] = target: T3, PaxA_(981-1071), isolated PaxA T1 domain, X. cabanillasii JM26 (Xenorhabdus cabanillasii JM26) (UniProt W1J0W9); assay: as above
T3 sequence: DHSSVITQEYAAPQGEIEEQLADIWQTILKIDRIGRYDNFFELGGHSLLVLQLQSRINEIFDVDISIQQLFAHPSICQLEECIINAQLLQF

[4] = target: T4, PaxA_(1066-1084), isolated PaxA CDD, X. cabanillasii JM26 (Xenorhabdus cabanillasii JM26) (UniProt W1J0W9); assay: as above
T4 sequence: AQLLQFDADSLQDIYKSME

[5] = target: T1, PaxA_(981-1084), T1-CDD di-domain construct (apo), X. cabanillasii JM26 (Xenorhabdus cabanillasii JM26); assay: NMR solution structure; 1:1 complex of PaxA T1-CDD di-domain and PaxB NDD (X. cabanillasii), from intra- and intermolecular NOEs; both purified
[6] = target: T1, PaxA_(981-1084), T1-CDD di-domain construct (apo), X. cabanillasii JM26 (Xenorhabdus cabanillasii JM26); assay: NMR titration; both purified
[7] = target: T5, PaxA_(986-1076), isolated T1 domain, X. bovienii SS-2004 (Xenorhabdus bovienii SS-2004); assay: ITC; PaxA construct titrated with the PaxB NDD peptide or its variant; n=3 for the variants; both purified
T5 sequence: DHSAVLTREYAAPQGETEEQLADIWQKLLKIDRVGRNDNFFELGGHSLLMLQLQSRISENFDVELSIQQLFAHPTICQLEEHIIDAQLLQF

[8] = target: T6, PaxA_(1071-1089) (PaxA CDD), X. bovienii SS-2004 (Xenorhabdus bovienii SS-2004); assay: as above
T6 sequence: AQLLQFDAESLQDLYKTMG

Q: With “PaxB NDD variant where residues 1-8 were deleted, X. cabanillasii JM26 (Xenorhabdus cabanillasii JM26) (domain or fragment)” as the substance, how does the binding [1] read?
A: The binding was “no binding”.

Q: With “PaxB_(1-30) (PaxB NDD), X. cabanillasii JM26 (Xenorhabdus cabanillasii JM26) (domain or fragment)” as the substance, how does the binding [2] read?
A: The binding was “binds”.

Q: What about the binding [3] of the same substance?
A: The binding was “no binding”.

Q: And the binding [4]?
A: Its binding is “no binding”.

Q: And the binding [5]?
A: Its binding is “binds”.

Q: And the binding [6]?
A: Its binding is “binds”.

Q: What does the source list for “PaxB_(1-36) (PaxB NDD), X. bovienii SS-2004 (Xenorhabdus bovienii SS-2004) (domain or fragment)”?
A: binding [7]: binds weakly; binding [8]: binds weakly
